PMC11300487, “C-phycocyanin reinforces autophagy to block pulmonary fibrogenesis by inhibiting lncIAPF biogenesis” (Archives of Pharmacal Research, 2024)
These are yes or no findings as the source states them, for the method shown. In cells and extracts the contact can be indirect. Some entries that bind do so weakly or less than the wild type.

By UniProt entry, the sequences of proteins in these tests, tags left out.
UniProt P84022: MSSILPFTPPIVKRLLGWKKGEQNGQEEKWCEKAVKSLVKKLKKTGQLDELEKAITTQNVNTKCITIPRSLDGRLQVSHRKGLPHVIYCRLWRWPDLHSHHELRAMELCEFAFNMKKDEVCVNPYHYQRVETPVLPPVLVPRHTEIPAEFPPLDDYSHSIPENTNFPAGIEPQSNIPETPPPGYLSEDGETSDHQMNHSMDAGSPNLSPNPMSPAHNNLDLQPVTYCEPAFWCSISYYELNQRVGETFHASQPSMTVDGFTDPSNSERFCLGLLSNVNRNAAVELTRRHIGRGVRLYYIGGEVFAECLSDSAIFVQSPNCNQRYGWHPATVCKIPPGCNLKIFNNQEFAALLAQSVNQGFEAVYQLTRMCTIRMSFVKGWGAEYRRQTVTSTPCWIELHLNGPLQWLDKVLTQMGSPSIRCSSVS

Molecular target: T1, activating transcription factor 3 (human (endogenous in MRC-5)) (UniProt P18847)
T1 sequence: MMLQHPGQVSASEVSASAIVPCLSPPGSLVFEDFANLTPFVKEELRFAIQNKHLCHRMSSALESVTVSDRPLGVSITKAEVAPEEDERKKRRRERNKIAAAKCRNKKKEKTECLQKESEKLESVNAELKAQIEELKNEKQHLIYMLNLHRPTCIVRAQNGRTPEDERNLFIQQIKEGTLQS
Assay: co-IP; MRC-5 cell lysate precipitated with rabbit anti-ATF3 (rabbit IgG as control) and Protein A/G, 4 °C overnight; cells treated with TGFβ1 or TGFβ1 and C-PC

In the case of “transcription factor Smad3 (from UniProt P84022 1-425)”, the binding is reported as “binds”.
